According to article PMC12581659:
These are yes or no findings as the source states them, for the method shown. In cells and extracts the contact can be indirect. Some results given as binding are weak or reduced against the parent protein; the word gives no strength.

Sequences of proteins named here, by UniProt entry; tags and fusion partners are left off.
UniProt Q9Y572: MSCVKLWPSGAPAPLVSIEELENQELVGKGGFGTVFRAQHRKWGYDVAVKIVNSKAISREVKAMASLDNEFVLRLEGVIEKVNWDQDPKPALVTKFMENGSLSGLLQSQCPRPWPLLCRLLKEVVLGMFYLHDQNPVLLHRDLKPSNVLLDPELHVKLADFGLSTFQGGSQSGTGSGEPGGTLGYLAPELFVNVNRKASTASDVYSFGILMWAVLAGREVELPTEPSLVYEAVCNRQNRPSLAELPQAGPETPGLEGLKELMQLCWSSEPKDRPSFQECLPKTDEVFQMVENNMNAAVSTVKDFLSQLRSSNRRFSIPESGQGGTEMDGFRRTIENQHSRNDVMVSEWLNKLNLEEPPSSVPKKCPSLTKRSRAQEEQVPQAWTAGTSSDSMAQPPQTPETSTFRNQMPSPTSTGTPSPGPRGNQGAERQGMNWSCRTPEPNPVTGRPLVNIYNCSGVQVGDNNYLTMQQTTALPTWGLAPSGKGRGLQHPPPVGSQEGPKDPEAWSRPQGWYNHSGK
UniProt O43791: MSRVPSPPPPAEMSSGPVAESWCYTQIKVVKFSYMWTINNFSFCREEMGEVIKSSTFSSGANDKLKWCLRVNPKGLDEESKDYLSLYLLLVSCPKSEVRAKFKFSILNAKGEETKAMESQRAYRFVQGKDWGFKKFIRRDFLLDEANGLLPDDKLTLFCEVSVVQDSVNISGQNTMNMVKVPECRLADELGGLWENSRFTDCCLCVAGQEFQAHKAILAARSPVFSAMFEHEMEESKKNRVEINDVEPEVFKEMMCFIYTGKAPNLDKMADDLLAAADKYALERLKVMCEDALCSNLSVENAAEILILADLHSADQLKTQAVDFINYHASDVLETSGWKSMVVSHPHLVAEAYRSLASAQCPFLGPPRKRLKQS
UniProt Q13619: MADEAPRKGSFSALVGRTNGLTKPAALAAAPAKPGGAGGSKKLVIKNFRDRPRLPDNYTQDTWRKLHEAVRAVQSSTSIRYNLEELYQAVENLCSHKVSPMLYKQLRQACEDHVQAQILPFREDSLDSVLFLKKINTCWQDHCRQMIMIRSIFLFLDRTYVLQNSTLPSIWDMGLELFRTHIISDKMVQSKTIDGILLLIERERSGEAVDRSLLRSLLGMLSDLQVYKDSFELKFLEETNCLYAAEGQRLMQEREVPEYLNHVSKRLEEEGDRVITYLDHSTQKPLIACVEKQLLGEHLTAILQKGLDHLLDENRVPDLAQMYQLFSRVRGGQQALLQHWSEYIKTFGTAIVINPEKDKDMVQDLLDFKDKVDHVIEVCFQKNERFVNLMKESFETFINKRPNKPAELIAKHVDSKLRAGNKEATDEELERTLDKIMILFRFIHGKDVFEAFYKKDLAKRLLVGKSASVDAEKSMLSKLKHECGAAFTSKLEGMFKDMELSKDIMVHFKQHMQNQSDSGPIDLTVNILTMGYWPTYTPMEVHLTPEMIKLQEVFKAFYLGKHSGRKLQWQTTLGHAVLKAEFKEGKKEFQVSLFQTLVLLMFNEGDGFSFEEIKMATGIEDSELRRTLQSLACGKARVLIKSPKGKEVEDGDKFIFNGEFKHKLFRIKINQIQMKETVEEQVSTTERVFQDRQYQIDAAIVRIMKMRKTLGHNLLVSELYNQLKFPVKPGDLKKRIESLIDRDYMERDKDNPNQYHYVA
UniProt Q6ZWS8: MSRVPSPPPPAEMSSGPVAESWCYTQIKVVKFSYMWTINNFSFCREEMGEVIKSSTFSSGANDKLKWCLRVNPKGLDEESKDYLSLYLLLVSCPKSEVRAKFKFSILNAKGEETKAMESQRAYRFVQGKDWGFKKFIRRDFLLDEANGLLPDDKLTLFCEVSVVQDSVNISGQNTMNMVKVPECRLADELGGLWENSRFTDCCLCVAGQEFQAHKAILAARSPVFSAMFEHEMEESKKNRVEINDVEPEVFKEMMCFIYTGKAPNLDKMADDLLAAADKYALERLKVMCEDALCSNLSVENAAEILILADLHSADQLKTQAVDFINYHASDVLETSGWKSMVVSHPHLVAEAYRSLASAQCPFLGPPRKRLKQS
UniProt Q13620: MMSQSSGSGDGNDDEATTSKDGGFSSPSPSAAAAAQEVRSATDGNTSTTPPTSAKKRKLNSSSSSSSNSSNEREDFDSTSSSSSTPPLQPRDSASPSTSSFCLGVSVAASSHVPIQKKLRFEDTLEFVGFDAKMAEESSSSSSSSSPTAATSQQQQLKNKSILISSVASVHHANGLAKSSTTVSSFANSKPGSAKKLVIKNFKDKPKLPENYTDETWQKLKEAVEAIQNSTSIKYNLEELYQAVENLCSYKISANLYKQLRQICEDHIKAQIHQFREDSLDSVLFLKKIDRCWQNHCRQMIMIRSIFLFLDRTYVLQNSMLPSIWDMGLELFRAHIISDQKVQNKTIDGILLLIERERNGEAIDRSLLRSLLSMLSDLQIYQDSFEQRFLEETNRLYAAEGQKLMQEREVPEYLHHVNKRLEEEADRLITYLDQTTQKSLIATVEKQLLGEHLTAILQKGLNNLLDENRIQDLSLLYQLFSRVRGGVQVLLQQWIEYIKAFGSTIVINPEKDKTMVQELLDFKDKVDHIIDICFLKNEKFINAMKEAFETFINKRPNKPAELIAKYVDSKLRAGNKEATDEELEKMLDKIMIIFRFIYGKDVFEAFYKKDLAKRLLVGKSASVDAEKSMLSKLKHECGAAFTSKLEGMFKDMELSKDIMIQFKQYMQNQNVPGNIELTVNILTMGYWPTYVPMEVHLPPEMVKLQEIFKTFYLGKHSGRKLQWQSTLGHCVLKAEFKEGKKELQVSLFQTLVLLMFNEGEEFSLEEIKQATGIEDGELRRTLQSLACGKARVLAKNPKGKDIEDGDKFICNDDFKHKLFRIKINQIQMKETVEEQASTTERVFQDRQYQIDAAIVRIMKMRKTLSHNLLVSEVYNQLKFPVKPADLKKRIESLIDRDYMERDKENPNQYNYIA
UniProt Q93034: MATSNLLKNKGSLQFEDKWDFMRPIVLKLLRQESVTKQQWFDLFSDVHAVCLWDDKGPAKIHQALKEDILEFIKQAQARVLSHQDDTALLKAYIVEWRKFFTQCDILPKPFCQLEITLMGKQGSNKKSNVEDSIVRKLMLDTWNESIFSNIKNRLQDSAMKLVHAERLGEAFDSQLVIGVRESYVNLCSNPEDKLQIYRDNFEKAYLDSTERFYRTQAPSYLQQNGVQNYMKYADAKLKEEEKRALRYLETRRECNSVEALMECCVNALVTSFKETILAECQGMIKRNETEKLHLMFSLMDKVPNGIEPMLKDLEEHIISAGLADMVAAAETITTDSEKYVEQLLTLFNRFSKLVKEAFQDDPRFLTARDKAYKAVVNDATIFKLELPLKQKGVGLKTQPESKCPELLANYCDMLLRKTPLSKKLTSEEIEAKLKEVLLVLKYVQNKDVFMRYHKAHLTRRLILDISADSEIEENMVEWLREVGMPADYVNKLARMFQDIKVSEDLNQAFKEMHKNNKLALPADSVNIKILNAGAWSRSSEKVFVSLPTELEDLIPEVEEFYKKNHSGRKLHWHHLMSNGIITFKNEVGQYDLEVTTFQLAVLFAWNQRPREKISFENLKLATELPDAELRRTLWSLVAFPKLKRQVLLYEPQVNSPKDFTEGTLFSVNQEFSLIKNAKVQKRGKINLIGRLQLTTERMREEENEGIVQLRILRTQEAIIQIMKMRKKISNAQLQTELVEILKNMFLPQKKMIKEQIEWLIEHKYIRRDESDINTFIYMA

Columns and labels:
Flag-RIPK3 = Flag-RIPK3 (UniProt Q9Y572); experiment: co-IP; HEK293T transfected with Flag-RIPK3 and indicated HA-SPOP or Myc-Cullin; cells treated with 20 μM MG132 for 6 hours before harvesting; immunoblot
[1] = molecular target: T1, receptor-interacting serine/threonine-protein kinase 1 (RIPK1), endogenous in MEFs (mouse (endogenous in MEFs)) (UniProt Q60855); experiment: co-IP; endogenous proteins in SPOP+/+ and SPOP-/- MEFs; cells treated with 20 μM MG132 for 4 hours before harvesting; lysate with antibody overnight at 4°C, Protein A/G magnetic beads
T1 sequence: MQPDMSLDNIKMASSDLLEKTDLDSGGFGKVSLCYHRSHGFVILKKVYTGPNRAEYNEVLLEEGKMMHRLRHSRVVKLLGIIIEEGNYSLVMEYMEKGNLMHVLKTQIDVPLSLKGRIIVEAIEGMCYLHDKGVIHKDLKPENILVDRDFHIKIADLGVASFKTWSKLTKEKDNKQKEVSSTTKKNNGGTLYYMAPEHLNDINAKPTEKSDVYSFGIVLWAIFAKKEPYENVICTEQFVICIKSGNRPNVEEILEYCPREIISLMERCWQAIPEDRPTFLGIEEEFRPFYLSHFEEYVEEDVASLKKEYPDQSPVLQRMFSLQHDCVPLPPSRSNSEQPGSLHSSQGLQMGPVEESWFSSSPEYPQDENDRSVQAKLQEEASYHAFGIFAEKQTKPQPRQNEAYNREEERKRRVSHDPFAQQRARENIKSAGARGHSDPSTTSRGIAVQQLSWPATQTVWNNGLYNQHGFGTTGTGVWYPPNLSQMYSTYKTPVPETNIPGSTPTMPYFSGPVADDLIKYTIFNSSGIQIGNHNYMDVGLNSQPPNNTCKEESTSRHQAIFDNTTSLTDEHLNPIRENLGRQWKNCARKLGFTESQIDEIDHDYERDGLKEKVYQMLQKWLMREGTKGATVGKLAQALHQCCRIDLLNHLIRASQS

Row | Substance | binding (Flag-RIPK3) | binding [1]
1 | HA-SPOP (WT) (from UniProt O43791 1-374) | binds | –
2 | Myc-Cullin4A (from UniProt Q13619 1-759) | no binding | –
3 | speckle-type POZ protein (SPOP), endogenous in MEFs (from UniProt Q6ZWS8 1-374) | – | binds

Continued, values first:

Row | binding (Flag-RIPK3) | binding [1] | Substance
4 | no binding | – | Myc-Cullin4B (from UniProt Q13620 1-913)
5 | no binding | – | Myc-Cullin5 (from UniProt Q93034 1-780)
